# Data from patent US20120093850A1.
# Sequences of proteins named here, by UniProt entry; tags and fusion partners are left off. A change or cut given only in a name is not applied to a line headed by its entry.
# UniProt Q2FKG1: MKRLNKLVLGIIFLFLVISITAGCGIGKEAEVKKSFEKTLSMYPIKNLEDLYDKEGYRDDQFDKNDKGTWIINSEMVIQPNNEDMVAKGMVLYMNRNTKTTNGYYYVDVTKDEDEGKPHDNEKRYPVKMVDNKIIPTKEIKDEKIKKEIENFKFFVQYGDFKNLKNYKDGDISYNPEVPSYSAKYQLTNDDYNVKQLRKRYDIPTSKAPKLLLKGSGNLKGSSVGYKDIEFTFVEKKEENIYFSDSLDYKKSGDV
# These are yes or no findings as the source states them, for the method shown. Some entries that bind do so weakly or less than the wild type.
# Biological target: recombinant tag-free Sta011 (Staphylococcus aureus (NCTC 8325 strain)) (UniProt Q2FKG1)
# Assay: native gel, self-oligomerisation
substance,measurement,value
recombinant tag-free Sta011 (from UniProt Q2FKG1 24-255),binding,binds
